Earlier results, collected in US12697342B2, “Non-surgical prevention of boar taint and aggressive behavior” (priority 2022, dated 2026).
At least one structure is not confirmed: it was looked up by name or label, or the drawing left a doubt.

System: Sertoli cells
Settings: neonatal pigs, exogenous treatment

**Q.** For C[C@]12CC[C@@H]3c4ccc(O)cc4CC[C@H]3[C@@H]1CC[C@@H]2O [E2, estradiol], which “number of Sertoli cells” value is on record?
**A.** Its value is “significant decrease”.
